Measured values published in PubChem BioAssay AID540256 (National Center for Advancing Translational Sciences (NCATS), 2011).
Screen size: about 300,000 compounds; about 3,700 (1.2%) were called active. Inconclusive results, whose numbers are uncertain, are shown with a selection of clear calls. Calls come from the whole dose curve; tested in HEK293 cells. A potency beside an inconclusive call is a rough fit, not a confirmed value.

Experiment: qHTS for Inhibitors of binding or entry into cells for Lassa Virus; note: nearly all actives have a fitted effect of over 50% in size
Conditions: Lassa virus pseudotype entry inhibition, cell reporter; activity change, negative = inhibition: at 37.9 µM (top of the series) unless noted
% is set by controls: 0 for no effect and ±100 for the full control effect; potency is the fitted concentration of half-maximal effect.

SMILES	activity change, negative = inhibition	Potency
CCOc1ccccc1N(C(=O)c1ccco1)C(C(=O)NC1CCCC1)c1cccs1 (configuration not stated)	inactive: -11.6% [at 46.1 µM]	–
Cc1ccc(O)c(C(=O)CC(=O)c2cccc(F)c2)c1	–	inconclusive: 35.5 µM [inhibitor, single point]
CCN(CC)C(=O)CSc1nc2sc3c(c2c(=O)n1CCOC)CCC3	inactive: 17.4% [at 46.1 µM]	–
c1ccc(OCCCn2nnc(-c3ccc(N4CCOCC4)cc3)n2)cc1	–	inconclusive: 1.64 µM [inhibitor, full curve, poor fit]
CCc1cccc(NC(=O)CN2C(=O)COc3ccc(S(=O)(=O)N4CCC(C)CC4)cc32)c1	inactive: -11.2% [at 46.1 µM]	–
CCn1c2ccccc2c2cc(Nc3cc(C)nc4ncnn34)ccc21	–	inconclusive: 1.64 µM [inhibitor, full curve]
CC1(C)CC2CC(C)(CN2C(=O)C23CCC(C)(C(=O)O2)C3(C)C)C1 (configuration not stated)	–	inconclusive: 20.6 µM [inhibitor, partial curve, poor fit]
Cc1ccccc1-c1nnn(CC(=O)c2ccc(S(=O)(=O)N3CCCC3)cc2)n1	–	inconclusive: 13 µM [inhibitor, partial curve, poor fit]
Cc1ccc(C(=O)CC2(O)C(=O)N(CCc3ccccc3)c3ccc(Br)cc32)cc1 (configuration not stated)	–	inconclusive: 20 µM [inhibitor, partial curve, poor fit]
CCN(CC(=O)NCc1cccs1)C(=O)CCCOc1ccc(C(C)(C)C)cc1	–	inconclusive: 14.1 µM [inhibitor, single point]
COc1cc(C)ccc1OCc1cc(C(=O)N(Cc2c(C)nn(C)c2C)C2CC2)no1	inactive: -25% [at 46.1 µM]	–
Cc1nc(-c2ccccn2)nc(SCC(=O)c2ccccc2)c1Cl	–	inconclusive: 8.91 µM [inhibitor, single point]
Cc1ccccc1N=C1c2cc([N+](=O)[O-])ccc2-c2ncccc21	inactive: 10.7%	–
Cc1ccc(S(=O)(=O)N2c3ccc(S(N)(=O)=O)cc3CC2C)cc1 (configuration not stated)	–	inconclusive: 2.24 µM [inhibitor, partial curve, poor fit]
O=[N+]([O-])c1cc([N+](=O)[O-])c2cc3ccccc3nc2c1	–	inconclusive: 7.08 µM [inhibitor, full curve, poor fit]
CC(=O)NC(c1ccco1)c1ccc2cccnc2c1O (configuration not stated)	–	inconclusive: 12.6 µM [inhibitor, single point]
Cc1ccc2scc(N3CCCC(C)C3)c(=O)c2c1 (configuration not stated)	inconclusive: 24.7% [activator] [at 46.1 µM]	–
CC(=O)c1csc(Nc2ccccc2Cl)n1	–	inconclusive: 35.5 µM [inhibitor, single point]
COc1ccc2nc(N3CCCC(C(=O)NCCCN4CCN(C)CC4)C3)sc2c1 (configuration not stated)	inactive: 51.9%	–
O=C(NC1CCCCC1)c1ccc(S(=O)(=O)c2ccccc2)cc1	–	inconclusive: 35.5 µM [inhibitor, single point]
CN(C)c1ccc(N/C=C/C(=O)C(C)(C)C)cc1	–	inconclusive: 0.794 µM [activator, single point]

SMILES	activity change, negative = inhibition	Potency
COc1cccc(NC(=O)CN(C)C(=O)C(Sc2ccccc2)c2ccccc2)c1 (configuration not stated)	–	inconclusive: 35.5 µM [inhibitor, single point]
CCCSc1oc(-c2ccco2)nc1S(=O)(=O)c1ccc(C)cc1	inactive: -5.75% [at 46.1 µM]	–
Cc1sc(N/N=C/C=C/c2ccccc2)nc1-c1ccccc1	–	inconclusive: 3.66 µM [inhibitor, single point]
COc1ccc(CCNC(=O)C(=O)N2CCCC2)cc1OC	–	inconclusive: 10 µM [inhibitor, single point]
O=C(CSc1ccc2ccccc2c1Br)Nc1cccc(S(=O)(=O)NC2=NCCCCC2)c1	–	inconclusive: 25.1 µM [inhibitor, single point]
CN(C)CCCNC(=O)/C(=C\C=C\c1ccccc1)NC(=O)c1ccc([N+](=O)[O-])cc1	–	inconclusive: 35.5 µM [inhibitor, single point]
CS(=O)(=O)N1CCC(C(=O)Nc2ccccc2Sc2ccccc2)CC1	–	inconclusive: 32.6 µM [inhibitor, single point]
NC(=O)c1c(NC(=O)COC(=O)c2ccc(O)c(Cl)c2)sc2c1CCCC2	inactive: 17.1% [at 46.1 µM]	–
COc1ccc(OC)c(-n2nnnc2SCC(=O)Nc2nc(C)c(C)s2)c1	–	inconclusive: 0.092 µM [inhibitor, full curve, poor fit]
CCOc1cc2[nH]c(=O)n(CCC(=O)N3CCN(c4ccccc4)CC3)c(=O)c2cc1OCC	inactive: 15.2% [at 46.1 µM]	–
COC(=O)c1ccc(C2C(Oc3ccc(OC)cc3)C(=O)N2CCc2ccc(F)cc2)cc1 (configuration not stated)	–	inconclusive: 5.62 µM [inhibitor, partial curve, poor fit]
COc1ccc(/C=C(/NC(=O)c2ccco2)C(=O)N2CCCCC2)cc1	–	inconclusive: 5.62 µM [activator, single point]
O=C(c1cnn2c1NC(c1ccc(Br)cc1)CC2C(F)(F)F)N1CCN2CCCC2C1 (configuration not stated)	–	inconclusive: 3.66 µM [inhibitor, full curve]
CCCCN1C[C@H](CO)Oc2cccc(F)c2S1(=O)=O	–	inconclusive: 12.5 µM [activator, single point]
Cc1ccc(S(=O)(=O)Oc2ccccc2-c2ccccc2)cc1	–	inconclusive: 5.62 µM [inhibitor, full curve]
COc1ccc2c(c1)NP(=S)(c1ccccc1)N2 (configuration not stated)	–	inconclusive: 35.5 µM [inhibitor, single point]
COc1ccccc1CNCC(O)Cn1c2ccccc2c2ccccc21 (configuration not stated)	–	active: 16.4 µM
CC1=NS(=O)(=O)c2cc(Cl)ccc2N1	–	inconclusive: 1.3 µM [activator, full curve, poor fit]
O=c1c2cccc3c2c(nn1CN1CCOCC1)-c1ccccc1-3	–	inconclusive: 29.1 µM [inhibitor, single point]
COc1ccc(-c2[nH]c(-c3ccc(C)cc3)nc2SCC(=O)NCC2CCCO2)cc1 (configuration not stated)	inactive: -10.7% [at 46.1 µM]	–
Cc1cccc(N2CCN(S(=O)(=O)c3ccc4c(c3)CCC(=O)N4)CC2C)c1 (configuration not stated)	–	inconclusive: 7.3 µM [inhibitor, partial curve, poor fit]

Quoted from the listing:
Value of `Cc1nc(-c2ccccn2)nc(SCC(=O)c2ccccc2)c1Cl` under Potency: inconclusive: 8.91 µM [inhibitor, single point]
Value of `NC(=O)c1c(NC(=O)COC(=O)c2ccc(O)c(Cl)c2)sc2c1CCCC2` under activity change, negative = inhibition: inactive: 17.1% [at 46.1 µM]
